Data published in PubChem BioAssay AID2685 (National Center for Advancing Translational Sciences (NCATS), 2010).
This is one part of the list. Further columns of the screen follow, without active or inactive calls. Compounds called inactive in the main read-out are mostly missing here. The note in brackets gives the kind of curve behind each potency; many fits are weak.

Assay: qHTS Assay for Lipid Storage Modulators in Drosophila S3 Cells;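 for cell number change: cells counted by Cell Tracker Red CMTPX staining in the red channel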
Conditions: BODIPY lipid droplet fluorescence, 18-24 h; for cell number change: measured here: cell count max response, cells fed with added oleic acid
How it was run: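 Drosophila S3 cells loaded with oleic acid (400 uM, as added) and compounds at several concentrations; lipid droplets imaged by 488-nm laser-scanning cytometry, 500–530 nm intensity and object ratio to cell channel. Percent activity normalized to 20 uM Triacsin C.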

[1] = measured here: cell number channel AC50, cells fed with added oleic acid
[2] = measured here: lipid fluorescence (Fed channel) AC50, cells fed with added oleic acid

SMILES | cell number change [%] | AC50 [1] | AC50 [2]
CCNc1nc(NCC)n2c(SCc3nc4ccccc4c(=O)[nH]3)nnc2n1 | 114 | 1.46 µM [rising, full curve] | 1.84 µM [rising, partial curve]
COc1ccc(-c2cc(C(=O)Nc3cc(C)on3)c3ccccc3n2)c(OC)c1 | 20.8 |  | 6.51 µM [rising, single point]
O=C(NCCC(=O)N(CCc1ccccc1)Cc1ccccc1)c1ccc(Br)cc1 | 30.9 | 2.31 µM [rising, full curve] | 2.31 µM [rising, partial curve]
Cn1c(N)c(C(=O)COC(=O)C2CC(=O)N(Cc3ccccc3)C2)c(=O)n(C)c1=O (stereo unspecified) | 32.2 | 3.26 µM [falling, single point] | 0.326 µM [rising, full curve, poor fit]
Cc1ccc(-c2nn(-c3ccc(F)cc3)cc2C(=O)N2CCN(C3CCS(=O)(=O)C3)CC2)cc1 (stereo unspecified) | -1.47 |  | 
COC(=O)c1cc(NC2c3ccccc3C(=O)N2Cc2ccco2)cc(C(=O)OC)c1 (stereo unspecified) | 1.23 |  | 13 µM [rising, single point]
O=C1CC(c2ccc(F)cc2)SC(N(c2ccccc2)c2ccccc2)=N1 (stereo unspecified) | 21.5 |  | 25.9 µM [falling, single point]
COc1cc(/C=C2\SC(=S)N(NC(=O)c3cccc(O)c3)C2=O)ccc1O | -89.2 | 3.66 µM [falling, full curve] | 3.26 µM [falling, full curve]
Cc1cccc(C(CC(=O)O)n2cccc2)c1 (stereo unspecified) | -44.1 | 2.91 µM [falling, full curve] | 16.4 µM [falling, single point]
Cc1cc(CN2CCCC(C(=O)Nc3ccc(-c4nc5ccccc5[nH]4)cc3)C2)n[nH]1 (stereo unspecified) | -23.3 |  | 29.1 µM [rising, single point]
O=C1Nc2ccccc2O/C1=C\c1ccccc1 | -2.82 |  | 1.3 µM [rising, full curve]
CCOc1ccccc1CN1CCNC(=O)C1CC(=O)N(C)Cc1nonc1C (stereo unspecified) | 5.95 |  | 29.1 µM [rising, single point]
O=C(NC(CSCc1ccccc1)C(=O)N/N=C/c1ccc(O)cc1O)c1ccc([N+](=O)[O-])cc1 (stereo unspecified) | -33.2 | 6.51 µM [falling, full curve, poor fit] | 0.461 µM [falling, full curve]
CCOC(=O)[C@H]1CCC[C@@H](NS(=O)(=O)c2ccc(NC(C)=O)cc2)C1 | 70.4 | 16.4 µM [rising, partial curve] | 6.51 µM [rising, single point]
O=C(Nc1ccc(Oc2ccccc2)cc1)C1CCN(c2c3c(nc4ncnn24)CCC3)CC1 | -60.4 | 18.4 µM [falling, partial curve] | 18.4 µM [falling, partial curve]
O=C(Cc1c(Cl)cccc1Cl)N/N=C/c1cccnc1 | 15 |  | 18.4 µM [rising, single point]
COc1ccc(NC(=O)CN2C(=O)COc3ccc(S(=O)(=O)N4CCCCC4)cc32)c(OC)c1 | 12.4 |  | 
CCOC(=O)N1CCN(C(=S)Nc2ccc3nc(N4CCN(CC)CC4)cc(C)c3c2)CC1 | -7.65 |  | 
Cc1cccc(-c2nn(-c3ccccc3)cc2C(=O)N2CCN(C3CCS(=O)(=O)C3)CC2)c1 (stereo unspecified) | -7.77 |  | 0.517 µM [falling, full curve]
CCOC(=O)C1CCCCN1C(=O)CCc1c(C)nc2cc(-c3ccccc3)nn2c1C (stereo unspecified) | -41.1 | 23.1 µM [falling, single point] | 
CC(C)(C)NS(=O)(=O)c1ccc(CCC(=O)NCc2ccccn2)cc1 | -10.5 |  | 0.651 µM [rising, full curve]
COc1ccccc1N=C1SCC(=O)N1c1ccccc1OC | -16.2 |  | 1.64 µM [rising, partial curve]
C/C(=N\O)c1oc2ccc3c(C)cc(=O)oc3c2c1C | 14.8 | 1.3 µM [rising, full curve] | 29.1 µM [rising, single point]
COCc1cc(C)nc(SCc2ccccc2Cl)c1C#N | -11.1 |  | 6.51 µM [falling, partial curve]
CCC(C)(C)NC(=O)c1ccc2c(c1)N(CC(=O)N1CCCC1)C(=O)C(C)(C)O2 | 21.9 |  | 0.58 µM [falling, single point]
CC(=O)/C(=N\Nc1ccccc1Cl)Sc1cccc2cccnc12 | -17.6 |  | 32.6 µM [falling, single point]
Cc1ccccc1-n1c(=S)[nH]c2nc3c(cc2c1=O)COC(C)(C)C3 | -25.1 |  | 1.64 µM [falling, partial curve, poor fit]
COC(=O)C1CCN(C(=O)COC(=O)c2ccc3[nH]c4c(c3c2)CCCC4)CC1 | -32.8 | 13 µM [falling, partial curve, poor fit] | 

Reprinted at random: 3 compounds from above
SMILES | cell number change [%] | AC50 [1] | AC50 [2]
CCOC(=O)C1CCCCN1C(=O)CCc1c(C)nc2cc(-c3ccccc3)nn2c1C (stereo unspecified) | -41.1 | 23.1 µM [falling, single point] | 
O=C1CC(c2ccc(F)cc2)SC(N(c2ccccc2)c2ccccc2)=N1 (stereo unspecified) | 21.5 |  | 25.9 µM [falling, single point]
COC(=O)c1cc(NC2c3ccccc3C(=O)N2Cc2ccco2)cc(C(=O)OC)c1 (stereo unspecified) | 1.23 |  | 13 µM [rising, single point]

Later entries:

SMILES | cell number change [%] | AC50 [1] | AC50 [2]
CCN(C(=O)c1ccc2c(Cl)c3c(nc2c1)CCC3)c1ccc(C)c(C)c1 | -45.8 | 25.9 µM [falling, partial curve, poor fit] | 2.59 µM [rising, partial curve]
O=C(COc1ccc2c(c1)C(=O)CC1(CCCCC1)O2)NCc1ccccn1 | 33.7 | 4.11 µM [rising, full curve, poor fit] | 29.1 µM [rising, single point]
COc1ccc(CNC(=O)c2c(O)c3cc(OC)c(OC)cc3[nH]c2=O)cc1OC | -22.8 | 1.3 µM [falling, partial curve] | 6.51 µM [falling, single point]
CN1C(=O)C(O)(CC(=O)/C=C\c2ccc3c(c2)OCO3)c2ccccc21 (stereo unspecified) |  |  | 2.59 µM [falling, partial curve]
Cc1ccc(S(=O)(=O)N(CC2CO2)c2cc(Cl)ccc2Cl)cc1 (stereo unspecified) | -2.86 |  | 3.66 µM [falling, partial curve]
COc1ccccc1NC(=O)N(Cc1ccc2c(c1)OCO2)Cc1nc2ccccc2c(=O)[nH]1 | 27.9 |  | 0.461 µM [rising, full curve]
COC(=O)c1ccc(C)c(NC(=O)c2nn(C)c(=O)c3ccccc23)c1 | 68.5 | 0.058 µM [rising, full curve, poor fit] | 0.82 µM [rising, full curve]
CC(=O)Nc1ccc(S(=O)(=O)NC2CCCCCC2)cc1 | 4.2 |  | 
Cc1ccc(S(=O)(=O)N2CCCCC2)cc1NC(=O)CSc1ncn[nH]1 | 19 |  | 0.092 µM [rising, full curve, poor fit]
CN1CCN(CCCNC(=O)CCC(=O)N2CCOc3ccccc32)CC1 | 11.2 |  | 16.4 µM [rising, single point]
Cc1ccc(CNC(=O)COC(=O)C2CC2)cc1 | -39.9 | 20.6 µM [falling, single point] | 14.6 µM [falling, single point]
O=C(O)c1cc(=O)c2cc(Cl)ccc2o1 |  |  | 6.51 µM [falling, full curve]
Cc1ccccc1NC(=O)Cc1nc(COC(=O)c2ccc(S(C)(=O)=O)c([N+](=O)[O-])c2)cs1 | -38.5 | 11.6 µM [falling, partial curve] | 0.411 µM [falling, full curve]
CC(=O)c1ccc(N2CCN(C(=O)CCS(=O)(=O)c3ccc(C)cc3)CC2)cc1 | -15.4 |  | 2.31 µM [rising, partial curve]
CN(CCC(=O)Nc1cc(S(=O)(=O)N(C)C)ccc1Cl)CC(=O)Nc1ccc(F)cc1 | 10.3 |  | 6.51 µM [rising, single point]
Cc1cccc(C(=O)Nc2sc(C(=O)N3CCCC3)c(C)c2C#N)c1 | 14 |  | 0.116 µM [falling, full curve, poor fit]
CCn1c(OC)nc2c1c(=O)n(C)c(=O)n2C | 13.3 |  | 0.731 µM [rising, partial curve]
COc1ccccc1NC(=O)C1CC(=O)N(c2ccc(F)cc2)C1 (stereo unspecified) |  |  | 0.58 µM [falling, single point]
CC(C)n1c(-c2ccc(C(C)(C)C)cc2)n[nH]c1=S | -33.9 |  | 
CCOc1ccc(CCNC(=O)c2nn(C)c3c2CS(=O)(=O)c2ccccc2-3)cc1OCC |  | 0.146 µM [rising, full curve, poor fit] | 4.11 µM [rising, single point]
CCN(CC(=O)NCc1cccs1)CC(=O)Nc1cccc(S(N)(=O)=O)c1 | -5.51 |  | 
Cc1ccc(S(=O)(=O)NCCNc2ccc([N+](=O)[O-])cc2C(F)(F)F)cc1 | -0.197 |  | 
COCCn1c(-c2ccccc2)nc2ccccc21 | 4.7 |  | 0.0058 µM [rising, full curve, poor fit]
Cn1c2ccccc2c2cc(/C=N/NC(=O)c3ccc(O)cc3O)ccc21 | -38.8 | 17.8 µM [falling, partial curve] | 
CCc1ccc(NC(=O)NNC(=O)c2ccc3ccccc3c2O)cc1 | 31 | 1.64 µM [rising, partial curve, poor fit] | 0.13 µM [rising, full curve, poor fit]
O=C(NC1CCSc2ccccc21)c1ccc(C(F)(F)F)cc1 (stereo unspecified) | 52.1 | 29.1 µM [rising, single point] | 
COCCn1c(C)cc(C(=O)COC(=O)CNC(=O)c2ccco2)c1C | 7.64 |  | 0.206 µM [falling, single point]
